# The shares of active, inactive and inconclusive entries below differ from those in the screen. Calls come from the whole dose curve; as a rule, active = well fitted inhibition curve with a large enough effect; inconclusive = small, poorly fitted or top-dose-only effect; inactive = flat fitted curve, though single readings scatter. Potencies beside an inconclusive call are fits to weak or partial responses and may not hold up. Square brackets hold non-standard residues; d marks the D form. Peptide text beside a SMILES is read from it. * marks the point of attachment. Dolaproine = CO[C@@H]([C@@H]1CCCN1)[C@@H](C)C(=O)O; Dil = CC[C@H](C)[C@H](NC)[C@@H](CC(=O)O)OC; NMe2Val = CC(C)[C@@H](C(=O)*)N(C)C; X1 = C[C@@H](N*)[C@@H](O)c1ccccc1; NMeV = CN[C@H](C(=O)O)C(C)C
# Assay: Identification of antibody-drug conjugate (ADC) payloads which are substrates of ATP-binding cassette drug efflux transporters: ABCB1-HEK293-pcDNA cell line
# Conditions: HEK293 empty-vector (pcDNA) control viability, CellTiter-Glo, 48 h
# Text: Antibody-drug conjugates (ADCs) feature an antibody recognizing a specific protein joined to a potent toxic payload. Numerous antibody-drug conjugates have received FDA approval; however, clinical resistance arises. Resistance mechanisms include decreased expression or mutation of the antibody target, impaired payload release, or increased expression of ATP-binding cassette (ABC) efflux transporters associated with multidrug resistance. We therefore sought to characterize the interaction of ABC multidrug transporters with ADC payloads. We performed a high-throughput screen with 27 common ADC payloads using cells lines expressing ABC transporters P-glycoprotein (P-gp, encoded by ABCB1) or ABCG2 (encoded by ABCG2). Confirmatory assays were also performed using cells transfected to express P-gp, ABCG2, or MRP1 (encoded by ABCC1). Several commonly used ADC payloads were substrates of P-gp, including calicheamicin gamma1, monomethyl auristatin E, DM1, and DM4. All the pyrrolobenzodiazepines tested - SJG136, SGD-1882, SG2057, and SG3199 - were substrates of P-gp, ABCG2, and MRP1. […] These findings highlight the risk of transporter-mediated resistance with certain ADC payloads and underscore the importance of selecting payloads that evade ABC transporter recognition in future ADC development.
# HEK-293 cells were transfected with empty vector (pcDNA) or vector containing the human ABCB1 (MDR-19), ABCG2 (R-5), or ABCC1 gene (MRP1) and were maintained in EMEM with 2 mg/mL G418 added to maintain transporter expression. The HeLa derivative KB-3-1 and the P-gp overexpressing KB-8-5-11 subline were maintained in DMEM; KB-8-5-11 additionally received 100 ng/mL colchicine. H460 parental cells were obtained from the Division of Cancer Treatment and Diagnosis Tumor Repository, National Cancer Institute at Frederick, MD and were cultured in RPMI. The ABCG2 expressing subline H460 MX20 was generated by selecting H460 cells in 20 nM mitoxantrone. Media in all cases was supplemented with 10% FBS and 1% penicillin-streptomycin. We explored 27 common ADC payloads, in two orthogonal, paired cell line sets-a drug selected and transfected set for each transporter--to identify substrates of the ABC transporters P-gp and ABCG2. Compounds were sourced from Levena Biopharma (San Diego, CA), Selleck Chem (Houston, TX), ChemieTek (Indianapolis, IN), or Microsource Discovery Systems (Gaylordsville, CT). Screening was performed as previously described. Briefly, cells were plated at a density of 500 cells/well in 1536 well plates with compounds added using a 1536-head pin tool (Kalypsys, San Diego CA). Cells were incubated with cytotoxic drugs and processed with CellTiter Glo reagent (Promega, Madison, WI) to determine viability after 48 hours. P-gp substrates were identified by comparing compound activity between paired sets of low-expressing (sensitive) and over-expressing (resistant) cell lines.
row,Structure (SMILES),Potency
1,CC[C@H](C)[C@@H]([C@@H](CC(=O)N1CCC[C@H]1[C@H](OC)[C@@H](C)C(=O)N[C@H](C)[C@@H](O)c1ccccc1)OC)N(C)C(=O)[C@@H](NC(=O)[C@H](C(C)C)N(C)C)C(C)C,"inconclusive: 1.7 nM [inhibitor, full curve]"
2,CC[C@H](C)[C@@H]([C@@H](CC(=O)N1CCC[C@H]1[C@H](OC)[C@@H](C)C(=O)N[C@H](C)[C@@H](O)c1ccccc1)OC)N(C)C(=O)[C@@H](NC(=O)[C@@H](NC)C(C)C)C(C)C (H-[NMeV]V[Dil][Dolaproine]-X1),"inconclusive: 2.7 nM [inhibitor, full curve]"
3,CC[C@H](C)[C@H](NC(=O)[C@H]1CCCCN1C)C(=O)N(C)[C@H](C[C@@H](OC(C)=O)c1nc(C(=O)O)cs1)C(C)C,"inconclusive: 420 nM [inhibitor, full curve]"
4,COc1cc2cc(c1Cl)N(C)C(=O)C[C@H](OC(=O)[C@H](C)N(C)C(=O)CCS)[C@]1(C)OC1[C@H](C)C1C[C@@](O)(NC(=O)O1)[C@H](OC)/C=C/C=C(\C)C2 (stereo partly drawn),"inconclusive: 4.2 nM [inhibitor, full curve]"
5,CC[C@H](C)[C@@H]1NC(=O)CNC(=O)[C@H]2Cc3c([nH]c4cc(O)ccc34)S(=O)C[C@H](NC(=O)CNC1=O)C(=O)N[C@@H](CC(N)=O)C(=O)N1C[C@H](O)C[C@H]1C(=O)N[C@@H]([C@@H](C)[C@@H](O)CO)C(=O)N2 (stereo partly drawn),"inconclusive: 839 nM [inhibitor, full curve]"
6,COc1cc2cc(c1Cl)N(C)C(=O)C[C@H](OC(=O)[C@H](C)N(C)C(=O)CCC(C)(C)S)[C@]1(C)OC1[C@H](C)C1C[C@@](O)(NC(=O)O1)[C@H](OC)/C=C/C=C(\C)C2 (stereo partly drawn),inconclusive: 0.8 nM [inhibitor]
7,COc1cc2cc(c1Cl)N(C)C(=O)C[C@H](OC(=O)C(C)C)[C@]1(C)O[C@H]1[C@H](C)[C@@H]1C[C@@](O)(NC(=O)O1)[C@H](OC)C=CC=C(C)C2,inconclusive: 0.3 nM [inhibitor]
8,CC[C@H](C)[C@@H]([C@@H](CC(=O)N1CCC[C@H]1[C@H](OC)[C@@H](C)C(=O)N[C@@H](Cc1ccccc1)C(=O)O)OC)N(C)C(=O)[C@@H](NC(=O)[C@H](C(C)C)N(C)C)C(C)C (NMe2Val-V[Dil][Dolaproine]F-OH),"inconclusive: 106 nM [inhibitor, full curve]"

# From PubChem BioAssay AID2061306 (National Center for Advancing Translational Sciences (NCATS), 2025)
